Results reported in PubChem BioAssay AID2417 (National Center for Advancing Translational Sciences (NCATS), 2010).
The whole screen tested about 140,000 compounds, of which about 4,300 (3.1%) were called active. The inconclusive results got no clear call from the source; some entries with a clear call stand among them for comparison.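 Rule for the calls: active = readout at or below -70, meaning at least 70% loss of cells showing the perinucleolar compartment, a nuclear body marking cancer cells; inconclusive = readout between -30 and a set limit; inactive = the rest.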

Experiment: High Content Assay for Compounds that inhibit the Assembly of the Perinucleolar Compartment;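 note: plate controls were DMSO wells for no effect and camptothecin positive control wells for full effect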
Conditions: PC3M PTB-GFP, PNC prevalence imaging, 16 h; at 10 µM; hits give low values
Summary of the method: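 Compounds are pinned in duplicate onto adhered PC3M cells stably expressing GFP-tagged PTB and incubated 16 h at 37 C. Cells are then fixed, nuclei stained with Hoechst, and PNC-positive cells counted.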

| SMILES | activity change (PNC), negative = inhibition |
| --- | --- |
| CCC(COC(=O)Nc1cccc(C)c1)NC(=O)OCC(C)C (stereo not drawn) | inconclusive: -74.3% |
| CCOC(=O)CSc1cn2c(n1)CCC2 | active: -100% |
| Cc1ccccc1-c1noc(-c2ccc(Cl)cc2)n1 | inconclusive: -48.1% |
| Cc1ccc(CS(=O)(=O)Cc2ccc(C(=O)NCC3CCCO3)o2)cc1 (stereo not drawn) | inactive: 63.5% |
| CC(=O)c1c(C)nn(CC(O)COc2ccc3c(c2)CCC3)c1C (stereo not drawn) | inconclusive: -72% |
| Cn1ncc(N=Cc2ccccc2O)c1C(=O)Nc1ccccc1 | inconclusive: -34.6% |
| Cc1ccc(/C=c2\sc3n(c2=O)CN(c2cccc(Br)c2)CN=3)o1 | inactive: -18% |
| O=C(NCc1ccc2c(c1)OCO2)c1nnc(Cc2ccc(Cl)cc2)o1 | inactive: 33% |
| O=C(CSc1cccs1)NCCc1ccccc1 | inconclusive: -36.4% |
| CCOc1ccccc1Nc1nnc(SCc2ccc(C(=O)OC)o2)s1 | inactive: 30.2% |
| CSc1ccccc1NC(=O)c1cnc2scc(C)n2c1=O | inconclusive: -56.5% |
| CC12CCC(C(=O)Nc3cccc4ccccc34)(C1Br)C2(C)C (stereo not drawn) | inactive: -14.2% |
| CCn1cc(Br)c(C(=O)Nc2ccc(F)c(Cl)c2)n1 | inconclusive: -40.6% |
| C/C(=N/NC(=O)c1cccc(C)c1)c1c(O)cc(C)oc1=O | active: -100% |
| O=C(O)CCCCn1c(SCC(=O)Nc2ccccc2C(F)(F)F)nc2ccsc2c1=O | active: -113% |
| Cc1nn(C)c(C(=O)NNC(=S)NC2CCCCC2)c1Cl | inactive: 8.24% |
| O=C(NCCN1CCOCC1)c1cc(Sc2cccc(Cl)c2)nc2ccccc12 | inconclusive: -44.9% |
| Cc1cc(NS(=O)(=O)c2ccc(NC(=O)C(C)Oc3ccc4c(C)cc(=O)oc4c3)cc2)no1 (stereo not drawn) | inconclusive: -43.5% |
| Cc1cc(Oc2ccccc2)nc(SCC(N)=O)n1 | inconclusive: -48.9% |
| O=C(Nc1ncccn1)c1cc([N+](=O)[O-])cc([N+](=O)[O-])c1 | inactive: -8.86% |
| CCS(=O)(=O)c1nn2c(N)c(/C=C3/C=CC(=O)C(OC)=C3)c(=O)nc2s1 | active: -116% |
| CC1Cc2ccccc2N1C(=O)c1cnc2ccccn2c1=O (stereo not drawn) | inconclusive: -76.4% |
| COc1ccc2nc(NCc3ccccc3)[nH]c2c1 | inconclusive: -32.8% |
| COc1cc(OC)cc(-c2n[nH]c(=S)n2-c2cc(OC)ccc2OC)c1 | inconclusive: -67.5% |

| SMILES | activity change (PNC), negative = inhibition |
| --- | --- |
| CCOc1ccc(C(C)(C)C)cc1S(=O)(=O)N1CCOCC1 | active: -97.4% |
| CCOc1ccccc1-n1nnnc1SCC(=O)Nc1cc(C)on1 | inactive: -22.1% |
| CCn1c(SCc2cc(=O)[nH]c3ccccc23)nnc1C1CC1 | inconclusive: -35.7% |
| COc1ccc(S(=O)(=O)N2CCCCC2)cc1NS(=O)(=O)c1cc(Cl)ccc1Cl | inconclusive: -36.7% |
| COc1cc(/C=N/NC(=O)C2C3CCCCC32C)cc(Br)c1O (stereo not drawn) | inactive: -19.8% |
| Cc1cc(O)cc(O[C@H]2OC(CO)[C@H](O)[C@@H](O)[C@H]2O)c1 (stereo partly drawn) | inconclusive: -71.5% |
| CCn1c(=O)c2cc(S(=O)(=O)NC3CCCCC3)ccc2n(CC)c1=O | inconclusive: -30.2% |
| CC(=O)Nc1cc(-c2ccccc2)ccc1O | inconclusive: -57.5% |
| CC(=O)Nc1ccccc1-c1nc2ccccc2nc1OCC(=O)c1ccc(Cl)cc1 | inconclusive: -62% |
| CCCCN1C(=O)/C(=C(/C#N)C(N)=O)c2ccccc21 | inconclusive: -76% |
| Cn1cc(/C=N/n2cnc3scc(-c4ccc(Cl)cc4)c3c2=O)c2ccccc21 | active: -99% |
| Cc1cc(SCNC(=O)c2ccccc2)ncn1 | inconclusive: -37.3% |
| CC(=O)Nc1ccc(-c2nn[nH]n2)cc1Cl | inactive: -17.5% |
| Cc1ccc(C2C(=O)N(C3CCC(C)CC3)CC(=O)N2C2CC2)cc1 (stereo not drawn) | inconclusive: -56.6% |
| C=CCn1c(SCC(=O)NCC(=O)OCC)nnc1-c1cccc(OC)c1 | inconclusive: -45.1% |
| CCN(CC)S(=O)(=O)c1cccc(NC(=O)COC(=O)CCC(=O)c2ccc(F)cc2)c1 | active: -82.1% |
| COc1ccc(N(C(=O)COc2ccc(F)cc2)S(=O)(=O)c2ccc(C)cc2)cc1 | inconclusive: -76.1% |
| N#CC1=C2SCC(O)(c3ccccc3)N2C(=O)CC1c1ccccc1F (stereo not drawn) | inactive: 0.426% |
| Cc1nnc(SCC(=O)Nc2ccc(Cl)cn2)s1 | active: -119% |
| CCCC(=O)OC1CC(C)N(C(=O)c2ccccc2)c2ccc(C)cc21 (stereo not drawn) | inconclusive: -39.2% |
| COc1ccc(OC)c(NC(=S)NCCSc2ccc(C)cc2)c1 | inconclusive: -31.2% |
| O=C(CSc1nnc(-c2cc3ccccc3cc2O)n1Cc1ccco1)N1CCc2ccccc2C1 | inactive: 35.6% |
| COc1ccc(CNC(=S)NCc2ccc(OC(C)C)cc2)cc1 | inactive: -24% |
| CCC(Oc1ccccc1)C(=O)N1CCN(C(=O)C(CC)Oc2ccccc2)CC1 (stereo not drawn) | inactive: 48.9% |

| SMILES | activity change (PNC), negative = inhibition |
| --- | --- |
| COCCNC(=O)CC(c1ccccc1)c1ccccc1 | inactive: 19.8% |
| CCCCc1cc(=O)oc2cc(C)cc(OCC(=O)O)c12 | inconclusive: -62% |
| FC(F)(F)c1cc(C(F)(F)F)c2ccc(N3CCN(c4ncccn4)CC3)nc2n1 | inconclusive: -33.8% |
| CC1CCC(C(=O)NC(C(=O)N2CCN(c3ccccn3)CC2)C(C)C)CC1 (stereo not drawn) | active: -114% |
| O=C(NCCO)c1cc2ccccc2cc1O | inconclusive: -59.3% |
| CCOC(=O)c1ccc(N=CC2=C(O)CC(C)(C)CC2=O)cc1 | inactive: 18.7% |
| Cc1cc(C)c(S(=O)(=O)Nc2ccc3c4c(cccc24)CC3)c(C)c1 | active: -88.4% |
| COC(=O)C1=C(C)N(C)C(=S)NC1c1ccccc1 (stereo not drawn) | inactive: -28.4% |
| O=C(NC(=S)Nc1ccc(N2CCOCC2)cc1)c1cncc(Br)c1 | inactive: 22.6% |
| O=C1CCCC2=C1C(c1ccccc1)C1C(=O)c3ccccc3C1=N2 (stereo not drawn) | inconclusive: -33.1% |
| CCOC(=O)CSc1nc2c(c(=O)n1-c1ccc(OCC)cc1)SCC2 | inactive: 30.6% |
| Nn1cnnc1N/N=C/c1cc(Br)cc(Br)c1O | inactive: 11% |
| O=c1c2ccccc2ncn1-c1cccc(Cl)c1 | inconclusive: -50% |
| Cc1cc(NC(=S)N(CCCN2CCOCC2)Cc2ccco2)ccc1Cl | active: -118% |
| c1ccc(COc2ccc(OCCCNC3CCCC3)cc2)cc1 | inconclusive: -60.9% |
| O=C(c1noc2c1CCCC2)N1CCN(C(c2ccccc2)c2ccccc2)CC1 | inconclusive: -30.9% |
| CC(C)n1cnc2cc(NCc3nc4ccccc4n3C)ccc21 | inconclusive: -61.6% |
| Cc1ccc2nc(NC(=O)CSc3nc4c(c(=O)n3C)SC(C)C4)sc2c1 (stereo not drawn) | inactive: -2.59% |
| O=C(CSc1nc2ccc(Cl)cc2[nH]1)c1ccc2c(c1)OCO2 | inconclusive: -36.3% |
| CNC(=S)N(CCc1c(C)[nH]c2ccc(OC)cc12)Cc1cc(OC)c(OC)c(OC)c1 | inconclusive: -34.9% |
| O=C1CCCc2nn(-c3ccccc3)c(-c3ccncc3)c21 | inactive: 8.21% |
| CCOC(=O)c1c(NC(=O)CSc2nnc(C)c(=O)[nH]2)sc2c1CCCC2 | inconclusive: -50.8% |
| COc1cc(C2C(C(=O)c3ccco3)=C(O)C(=O)N2CCc2ccccc2)ccc1O (stereo not drawn) | inconclusive: -50.6% |
| COc1ccccc1CNC(=S)NC1CCCC1 | inactive: 2.37% |

Among those listed so far, 11 have two or more sulfur atoms:

| SMILES | activity change (PNC), negative = inhibition |
| --- | --- |
| O=C(CSc1cccs1)NCCc1ccccc1 | inconclusive: -36.4% |
| CCOc1ccccc1Nc1nnc(SCc2ccc(C(=O)OC)o2)s1 | inactive: 30.2% |
| CSc1ccccc1NC(=O)c1cnc2scc(C)n2c1=O | inconclusive: -56.5% |
| O=C(O)CCCCn1c(SCC(=O)Nc2ccccc2C(F)(F)F)nc2ccsc2c1=O | active: -113% |
| CCS(=O)(=O)c1nn2c(N)c(/C=C3/C=CC(=O)C(OC)=C3)c(=O)nc2s1 | active: -116% |
| COc1ccc(S(=O)(=O)N2CCCCC2)cc1NS(=O)(=O)c1cc(Cl)ccc1Cl | inconclusive: -36.7% |
| Cc1nnc(SCC(=O)Nc2ccc(Cl)cn2)s1 | active: -119% |
| COc1ccc(OC)c(NC(=S)NCCSc2ccc(C)cc2)c1 | inconclusive: -31.2% |
| CCOC(=O)CSc1nc2c(c(=O)n1-c1ccc(OCC)cc1)SCC2 | inactive: 30.6% |
| Cc1ccc2nc(NC(=O)CSc3nc4c(c(=O)n3C)SC(C)C4)sc2c1 (stereo not drawn) | inactive: -2.59% |
| CCOC(=O)c1c(NC(=O)CSc2nnc(C)c(=O)[nH]2)sc2c1CCCC2 | inconclusive: -50.8% |

Carrying on.

| SMILES | activity change (PNC), negative = inhibition |
| --- | --- |
| Cc1ccc(C)c(OCCCCn2cnc3ccccc3c2=O)c1 | inconclusive: -42.1% |
| COc1ccc(N(CC(=O)Nc2ccc3c(c2)OCCO3)S(=O)(=O)c2cccnc2)cc1 | inconclusive: -46.4% |
| Clc1ccc(OCc2nn3c(-c4ccncc4)nnc3s2)cc1 | inactive: -16.3% |
| CC1(c2ccccc2)CC2CC(c3ccccc3)N1O2 (stereo not drawn) | inconclusive: -43.1% |
| O=C(CCSc1ccc(Cl)cc1)NC1CCCCC1 | active: -109% |
| O=C(CCS(=O)(=O)c1cccs1)Nc1ccc(C(=O)NCc2cccs2)cc1 | inconclusive: -41.1% |
| Nc1ccc(O)c2c(=O)cc(-c3ccccc3Cl)oc12 | inconclusive: -38.3% |
| Cc1cc(C)cc(-n2c(C)cc(C(=S)N3CCOCC3)c2C)c1 | inactive: 15.5% |
| Cc1cc(=O)n2c3c(sc2n1)C(=O)N(Cc1ccccc1)C3=O | inconclusive: -36.1% |
| COCCNC(=O)C(c1ccco1)N(Cc1ccc(OC)cc1)C(=O)Cn1nnc2ccccc21 (stereo not drawn) | inconclusive: -47.1% |
| O=S(=O)(N1CCCCC1)n1nnc2ccccc21 | inconclusive: -36.1% |
| CCC(=O)NC(=S)Nc1ccc(S(=O)(=O)N2CCN(C)CC2)cc1 | inconclusive: -30.8% |
| COc1ccc(-c2cc(C(=O)OC(C)C(=O)Nc3c(C)n(C)n(-c4ccccc4)c3=O)c3ccccc3n2)cc1 (stereo not drawn) | active: -86% |
| O=C(CSc1ncnc2c1sc1ccccc12)Nc1ccc(Br)cc1 | inactive: 10.4% |
| O=C1C=C(NCCN2CCOCC2)C(=O)c2cnccc21 | active: -82.3% |
| COc1cccc(Nc2nc3ccccc3n3cnnc23)c1 | inconclusive: -41.5% |
| CCOC(=O)c1c(N)sc2c(NC(C)=O)cccc12 | inconclusive: -36.1% |
| COc1ccc2oc(-c3ccc(NC(=O)c4ccc(N5CCOCC5)c([N+](=O)[O-])c4)cc3)nc2c1 | inconclusive: -54.5% |
| O=C(/C=C/c1ccc(Br)cc1)NC(=S)Nc1ccc(S(=O)(=O)Nc2nccs2)cc1 | inactive: 38.1% |
| CCOC(=O)C1CCN(C(=O)COc2cccc(C)c2)CC1 | active: -84.8% |
| O=C1c2cccc3cccc(c23)C(=O)N1c1nccs1 | inactive: 19% |

Sorted by number of heavy atoms (smallest number first): 3 of the compounds above

| SMILES | activity change (PNC), negative = inhibition |
| --- | --- |
| Clc1ccc(OCc2nn3c(-c4ccncc4)nnc3s2)cc1 | inactive: -16.3% |
| N#CC1=C2SCC(O)(c3ccccc3)N2C(=O)CC1c1ccccc1F (stereo not drawn) | inactive: 0.426% |
| O=C(O)CCCCn1c(SCC(=O)Nc2ccccc2C(F)(F)F)nc2ccsc2c1=O | active: -113% |
